Laboratory results taken from the supplement of paper PMC10849652.
Some of the results follow.

Amino acid sequences for entries named in this document (tags omitted). A change or cut given only in a name is not applied to a line headed by its entry.
UniProt Q9UPQ9, whole entry, looked up: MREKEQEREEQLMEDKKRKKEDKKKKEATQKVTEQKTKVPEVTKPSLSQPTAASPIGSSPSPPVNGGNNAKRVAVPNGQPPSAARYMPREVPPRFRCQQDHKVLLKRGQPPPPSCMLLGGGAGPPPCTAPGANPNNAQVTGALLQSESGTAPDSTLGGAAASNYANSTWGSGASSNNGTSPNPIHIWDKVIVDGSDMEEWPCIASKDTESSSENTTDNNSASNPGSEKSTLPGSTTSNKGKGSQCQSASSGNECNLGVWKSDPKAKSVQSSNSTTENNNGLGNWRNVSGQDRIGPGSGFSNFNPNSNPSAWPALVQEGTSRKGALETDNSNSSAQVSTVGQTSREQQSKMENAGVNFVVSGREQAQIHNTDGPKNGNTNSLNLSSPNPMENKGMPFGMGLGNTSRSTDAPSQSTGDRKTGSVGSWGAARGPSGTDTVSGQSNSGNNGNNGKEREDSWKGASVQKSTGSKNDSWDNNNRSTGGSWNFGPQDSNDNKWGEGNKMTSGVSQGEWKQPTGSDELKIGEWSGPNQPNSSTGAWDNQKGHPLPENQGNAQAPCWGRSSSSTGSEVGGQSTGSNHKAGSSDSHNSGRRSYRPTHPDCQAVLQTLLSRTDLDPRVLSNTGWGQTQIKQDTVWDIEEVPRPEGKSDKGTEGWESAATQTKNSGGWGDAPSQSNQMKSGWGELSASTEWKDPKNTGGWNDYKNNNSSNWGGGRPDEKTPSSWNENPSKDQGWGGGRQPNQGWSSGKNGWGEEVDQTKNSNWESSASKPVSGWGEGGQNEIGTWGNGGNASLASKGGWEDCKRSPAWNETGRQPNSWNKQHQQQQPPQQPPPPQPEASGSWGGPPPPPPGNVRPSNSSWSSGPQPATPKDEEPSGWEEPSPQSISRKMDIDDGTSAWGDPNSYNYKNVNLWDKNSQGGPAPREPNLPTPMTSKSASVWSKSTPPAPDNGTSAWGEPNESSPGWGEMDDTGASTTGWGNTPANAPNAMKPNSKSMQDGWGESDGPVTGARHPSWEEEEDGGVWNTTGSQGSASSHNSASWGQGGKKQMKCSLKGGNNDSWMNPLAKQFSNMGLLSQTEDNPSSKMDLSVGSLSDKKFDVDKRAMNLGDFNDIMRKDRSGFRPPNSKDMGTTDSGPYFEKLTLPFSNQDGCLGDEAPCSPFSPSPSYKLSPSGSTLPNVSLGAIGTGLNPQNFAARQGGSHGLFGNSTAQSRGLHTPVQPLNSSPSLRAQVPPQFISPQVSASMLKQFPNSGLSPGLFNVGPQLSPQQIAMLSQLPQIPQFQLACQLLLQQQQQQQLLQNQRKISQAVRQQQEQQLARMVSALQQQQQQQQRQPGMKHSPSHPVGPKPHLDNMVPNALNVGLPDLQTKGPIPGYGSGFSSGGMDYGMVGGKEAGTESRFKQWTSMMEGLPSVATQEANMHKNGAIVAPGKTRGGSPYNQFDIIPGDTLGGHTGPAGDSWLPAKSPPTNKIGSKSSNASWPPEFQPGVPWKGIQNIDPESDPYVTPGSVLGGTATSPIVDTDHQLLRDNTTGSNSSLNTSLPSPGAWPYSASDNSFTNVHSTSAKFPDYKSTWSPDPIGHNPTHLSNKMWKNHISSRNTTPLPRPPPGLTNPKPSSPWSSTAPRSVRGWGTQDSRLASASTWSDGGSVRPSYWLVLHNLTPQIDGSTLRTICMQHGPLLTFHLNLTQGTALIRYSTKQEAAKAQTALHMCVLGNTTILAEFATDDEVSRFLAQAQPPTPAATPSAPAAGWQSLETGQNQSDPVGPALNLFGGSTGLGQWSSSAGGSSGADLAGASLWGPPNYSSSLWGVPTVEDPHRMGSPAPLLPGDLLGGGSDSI
UniProt O00635: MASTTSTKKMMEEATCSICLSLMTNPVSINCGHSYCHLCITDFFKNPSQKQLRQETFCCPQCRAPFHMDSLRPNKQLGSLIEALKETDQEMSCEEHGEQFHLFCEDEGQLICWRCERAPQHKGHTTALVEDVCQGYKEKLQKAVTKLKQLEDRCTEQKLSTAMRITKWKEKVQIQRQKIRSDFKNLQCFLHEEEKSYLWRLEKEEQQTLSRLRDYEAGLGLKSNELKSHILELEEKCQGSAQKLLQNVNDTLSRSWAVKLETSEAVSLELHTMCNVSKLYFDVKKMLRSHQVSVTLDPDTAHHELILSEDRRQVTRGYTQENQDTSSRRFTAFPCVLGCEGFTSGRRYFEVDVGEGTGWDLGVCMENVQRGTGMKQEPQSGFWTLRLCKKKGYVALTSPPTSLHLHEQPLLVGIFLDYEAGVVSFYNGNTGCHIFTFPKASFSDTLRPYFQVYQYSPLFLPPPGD
UniProt Q9H3S4: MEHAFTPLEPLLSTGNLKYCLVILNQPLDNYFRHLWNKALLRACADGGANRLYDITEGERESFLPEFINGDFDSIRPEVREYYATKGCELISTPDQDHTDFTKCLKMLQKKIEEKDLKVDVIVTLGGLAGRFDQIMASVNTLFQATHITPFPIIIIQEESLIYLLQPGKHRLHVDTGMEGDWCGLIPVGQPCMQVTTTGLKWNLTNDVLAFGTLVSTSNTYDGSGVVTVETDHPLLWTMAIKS
UniProt Q8TEL6: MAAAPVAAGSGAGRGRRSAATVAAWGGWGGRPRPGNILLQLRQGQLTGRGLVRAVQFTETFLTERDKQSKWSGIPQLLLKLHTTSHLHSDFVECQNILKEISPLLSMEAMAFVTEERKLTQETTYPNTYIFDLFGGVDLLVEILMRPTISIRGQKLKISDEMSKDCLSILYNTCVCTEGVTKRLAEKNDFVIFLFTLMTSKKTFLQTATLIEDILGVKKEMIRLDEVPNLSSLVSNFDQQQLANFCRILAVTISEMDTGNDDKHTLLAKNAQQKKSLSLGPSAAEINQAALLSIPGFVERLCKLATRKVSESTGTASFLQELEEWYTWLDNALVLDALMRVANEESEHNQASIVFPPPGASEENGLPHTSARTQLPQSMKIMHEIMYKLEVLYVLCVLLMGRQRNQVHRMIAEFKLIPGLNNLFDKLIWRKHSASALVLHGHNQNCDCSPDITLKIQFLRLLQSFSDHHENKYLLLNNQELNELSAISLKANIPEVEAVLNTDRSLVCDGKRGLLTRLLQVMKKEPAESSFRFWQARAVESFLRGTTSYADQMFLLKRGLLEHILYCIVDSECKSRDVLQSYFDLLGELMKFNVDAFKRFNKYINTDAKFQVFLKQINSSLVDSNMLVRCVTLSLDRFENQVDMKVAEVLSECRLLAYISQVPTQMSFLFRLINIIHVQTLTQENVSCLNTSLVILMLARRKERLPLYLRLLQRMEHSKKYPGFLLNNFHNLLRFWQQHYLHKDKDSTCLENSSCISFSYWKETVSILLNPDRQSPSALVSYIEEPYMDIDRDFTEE
UniProt Q86W33: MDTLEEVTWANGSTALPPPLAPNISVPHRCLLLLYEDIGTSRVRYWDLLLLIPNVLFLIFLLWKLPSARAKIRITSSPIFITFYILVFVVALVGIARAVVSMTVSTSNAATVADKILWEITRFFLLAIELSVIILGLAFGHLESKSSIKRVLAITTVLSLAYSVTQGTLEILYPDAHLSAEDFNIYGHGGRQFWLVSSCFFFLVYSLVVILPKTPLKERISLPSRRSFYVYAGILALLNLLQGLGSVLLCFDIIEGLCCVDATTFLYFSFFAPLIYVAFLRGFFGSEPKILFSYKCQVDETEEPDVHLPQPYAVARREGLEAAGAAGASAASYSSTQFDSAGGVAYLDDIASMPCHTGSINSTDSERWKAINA
UniProt O43399: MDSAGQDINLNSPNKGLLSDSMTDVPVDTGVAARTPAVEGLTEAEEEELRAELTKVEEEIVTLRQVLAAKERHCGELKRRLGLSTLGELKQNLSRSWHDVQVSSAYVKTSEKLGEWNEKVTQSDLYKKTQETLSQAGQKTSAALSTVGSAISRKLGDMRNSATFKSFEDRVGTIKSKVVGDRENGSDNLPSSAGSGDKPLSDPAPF
UniProt O60784, whole entry, looked up: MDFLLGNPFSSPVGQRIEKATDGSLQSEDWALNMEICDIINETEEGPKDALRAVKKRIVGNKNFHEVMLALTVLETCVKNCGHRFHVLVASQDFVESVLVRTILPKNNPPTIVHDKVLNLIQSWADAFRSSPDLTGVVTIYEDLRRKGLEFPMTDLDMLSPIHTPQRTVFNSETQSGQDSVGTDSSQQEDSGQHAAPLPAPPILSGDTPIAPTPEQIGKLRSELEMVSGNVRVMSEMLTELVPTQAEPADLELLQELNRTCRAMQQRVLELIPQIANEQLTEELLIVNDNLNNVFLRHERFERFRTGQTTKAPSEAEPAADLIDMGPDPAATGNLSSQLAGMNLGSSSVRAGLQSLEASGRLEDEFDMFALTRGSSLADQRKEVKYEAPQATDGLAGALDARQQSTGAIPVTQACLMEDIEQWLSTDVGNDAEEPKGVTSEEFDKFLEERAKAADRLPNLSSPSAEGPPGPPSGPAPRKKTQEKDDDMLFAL
UniProt Q12815: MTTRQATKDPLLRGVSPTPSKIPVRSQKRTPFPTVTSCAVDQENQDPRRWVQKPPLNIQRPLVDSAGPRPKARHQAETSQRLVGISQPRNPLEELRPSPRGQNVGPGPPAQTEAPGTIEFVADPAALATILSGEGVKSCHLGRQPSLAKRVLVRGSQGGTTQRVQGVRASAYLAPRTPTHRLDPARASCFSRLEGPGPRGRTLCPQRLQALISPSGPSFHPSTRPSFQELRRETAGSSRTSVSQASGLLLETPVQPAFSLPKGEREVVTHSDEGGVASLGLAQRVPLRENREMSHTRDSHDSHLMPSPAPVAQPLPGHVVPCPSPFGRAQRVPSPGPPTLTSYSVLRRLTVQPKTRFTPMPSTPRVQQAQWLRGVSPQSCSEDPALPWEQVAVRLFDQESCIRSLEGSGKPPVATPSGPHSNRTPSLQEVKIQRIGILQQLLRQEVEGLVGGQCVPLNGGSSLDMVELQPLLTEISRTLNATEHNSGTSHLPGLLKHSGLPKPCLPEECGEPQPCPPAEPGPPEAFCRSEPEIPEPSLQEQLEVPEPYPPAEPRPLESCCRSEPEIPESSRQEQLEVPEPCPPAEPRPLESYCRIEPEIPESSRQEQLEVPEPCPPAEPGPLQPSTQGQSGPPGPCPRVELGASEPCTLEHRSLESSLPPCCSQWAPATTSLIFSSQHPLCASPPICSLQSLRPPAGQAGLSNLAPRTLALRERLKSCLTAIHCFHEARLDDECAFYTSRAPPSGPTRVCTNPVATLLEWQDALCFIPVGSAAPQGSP
UniProt P14373: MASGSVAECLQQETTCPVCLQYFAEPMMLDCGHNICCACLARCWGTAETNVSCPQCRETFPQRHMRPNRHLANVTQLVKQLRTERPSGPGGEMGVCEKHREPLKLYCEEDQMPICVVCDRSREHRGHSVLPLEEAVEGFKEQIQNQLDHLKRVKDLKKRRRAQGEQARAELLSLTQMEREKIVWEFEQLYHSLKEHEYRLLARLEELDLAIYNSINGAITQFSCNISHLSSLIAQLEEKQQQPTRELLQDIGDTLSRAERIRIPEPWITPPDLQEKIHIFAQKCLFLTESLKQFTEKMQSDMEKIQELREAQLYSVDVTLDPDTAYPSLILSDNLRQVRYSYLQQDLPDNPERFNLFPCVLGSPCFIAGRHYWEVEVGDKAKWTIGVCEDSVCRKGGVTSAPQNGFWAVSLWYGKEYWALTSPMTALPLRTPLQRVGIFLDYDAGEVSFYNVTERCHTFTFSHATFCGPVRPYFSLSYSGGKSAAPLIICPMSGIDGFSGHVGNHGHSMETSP
UniProt O95900: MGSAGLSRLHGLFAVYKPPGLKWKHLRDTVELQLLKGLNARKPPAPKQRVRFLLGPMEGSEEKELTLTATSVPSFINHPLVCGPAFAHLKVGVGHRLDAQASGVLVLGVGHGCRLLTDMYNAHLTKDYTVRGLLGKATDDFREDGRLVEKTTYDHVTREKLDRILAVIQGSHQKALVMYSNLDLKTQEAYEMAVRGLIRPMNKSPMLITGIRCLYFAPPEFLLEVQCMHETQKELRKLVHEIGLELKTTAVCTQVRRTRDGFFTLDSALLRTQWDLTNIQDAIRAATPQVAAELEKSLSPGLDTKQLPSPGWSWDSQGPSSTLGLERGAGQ

compound: CN1CCC(CNc2ccc3ncc(-c4cccc(OC(F)(F)F)c4)n3n2)CC1; test: log2 fold change, soluble protein after heating vs DMSO (PISA); higher = thermal stabilisation; K562 cells, 10 uM, 30 min; active = over 0.2 and 3.5 SD of the protein, either way, in both replicates (recomputed)
Method in brief: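 Thermal stability values are relative to control samples and come from duplicates. They are expressed as log2 fold changes. For measurement, K562 cells (2×10^6 cells/mL) received 10 μM compound for 30 min, and aliquots were heated for 3 min over 48°C-58°C, pooled, and extracted at 4°C in PBS with 0.5% NP-40. Soluble protein, the supernatant after 21,000xg for 90 min, was quantified by TMTpro 16plex LC-MS/MS with equalised channel sums.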

Target | log2 fold change
TNRC6B (UniProt Q9UPQ9) | inactive: 0.097
TRIM38 (UniProt O00635) | inactive: -0.193
TPK1 (UniProt Q9H3S4) | inactive: -0.019
TP53BP2 isoform 3 (UniProt Q13625) | inactive: -0.123
TRPC4AP (UniProt Q8TEL6) | inactive: -0.097
TPRA1 (UniProt Q86W33) | inactive: -0.205
TPD52L2 isoform 3 (UniProt O43399) | inactive: -0.042
TOM1 (UniProt O60784) | active: -0.664
TPCN1 isoform 3 (UniProt Q9ULQ1) | inactive: -0.19
TRAPPC2 isoform 3 (UniProt P0DI81) | inactive: 0.101
TROAP (UniProt Q12815) | inactive: -0.086
TRIM27 (UniProt P14373) | inactive: 0.124
TRUB2 (UniProt O95900) | inactive: 0.069

Reformatted as comma-separated lines: entries from further up.
Target,log2 fold change
TRIM27 (UniProt P14373),inactive: 0.124
TRUB2 (UniProt O95900),inactive: 0.069
